Results published in PubChem BioAssay AID504467 (National Center for Advancing Translational Sciences (NCATS), 2011).
About 7,700 (2.3%) of roughly 330,000 compounds were called active. Inconclusive results, whose numbers are uncertain, are shown with a selection of clear calls. The call rests on the fitted dose curve; in most records, active means well fitted inhibition curve with a large enough effect; inconclusive means small, poorly fitted or top-dose-only effect, or effect the other way; inactive means flat fitted curve, though single readings scatter. Potencies of inconclusive entries are doubtful fits and often do not repeat.

assay: qHTS screen for small molecules that inhibit ELG1-dependent DNA repair in human embryonic kidney (HEK293T) cells expressing luciferase-tagged ELG1; details: HEK293T ELG1-luciferase reporter, luminescence, 16 h, DNA damage induced by 5-fluorouridine; activity change, negative = inhibition: at 46.1 µM (top of the series); further: nearly all actives have a fitted effect of over 55% in size
How it was run: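 In this reporter screen, reduction of luminescence relative to DMSO vehicle indicated activity. Compounds and 5-fluorouridine were added together to 2,000 cells per well, incubated for 16 hr at 37 °C, then developed with ONE-Glo.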
On the % scale 0 is the no-effect control and ±100 the full control effect; potency means the concentration at half of the fitted maximal effect.

Structure (SMILES) | Potency | activity change, negative = inhibition
Cc1csc(NC(=O)CSc2nc(C(C)C)nc3c2c(=O)n(C)c(=O)n3C)n1 | inconclusive: 23.1 µM [inhibitor, partial curve] | 
O=C(c1ccc(CSc2nc3ccncc3[nH]2)cc1)N1CCCCC1 | inconclusive: 14.6 µM [activator, partial curve] | 
COc1ccc(-n2c(C)cc(C(=O)CSc3nnc(-c4ccoc4C)n3C)c2C)cc1 | inconclusive: 32.6 µM [inhibitor, single point] | 
Cc1nnc(SCCC#N)n(CCC#N)c1=O | inconclusive: 9.2 µM [activator, partial curve, poor fit] | 
COc1cccc(NC(=O)Cc2ccccc2)c1 | inconclusive: 20.6 µM [activator, single point] | 
CC(=O)O[C@H]1[C@@H](O)[C@H](O)[C@H](Oc2c(O)c(C)c3c4c2[C@@H](C)CC[C@@H]4[C@@H](C)C[C@H]3C=C(C)C)O[C@H]1C |  | inactive: 27.3%
CC(=O)N=c1scc(-c2ccccc2)n1-c1cccc(O)c1 |  | inactive: 15.9%
CCOC(=O)Cc1csc(NC(=O)c2ccc(F)cc2)n1 | inconclusive: 29.1 µM [inhibitor, single point] | 
O=C(NC1CCCCC1)C(c1ccc(F)cc1)N(Cc1cccs1)C(=O)CN1C(=O)c2ccccc2S1(=O)=O (centres undefined) |  | inactive: 4.54%
Nc1nc(-c2ccccc2Br)cs1 | inconclusive: 16.4 µM [activator, partial curve, poor fit] | 
CC(/C=C/c1ccccc1)=N\Nc1ccccc1[N+](=O)[O-] | inconclusive: 20.6 µM [activator, partial curve] | 
O=C(Cc1ccc(F)cc1)N[C@@H]1c2ccccc2CC[C@@H]1OCc1ccccc1 | inconclusive: 29.1 µM [activator, single point] | 
COc1ccc(S(=O)(=O)N2CCC3(CC2)OCCN3S(=O)(=O)c2ccc(OC)cc2)cc1 |  | inactive: -12.6%
CSc1ccc(CN(C)CC(=O)Nc2ccccc2C(=O)NC2CC2)cc1 | inconclusive: 29.1 µM [inhibitor, single point] | 
CCOc1ccc(N(CC(=O)Nc2cccnc2)S(=O)(=O)c2ccc(C)cc2)cc1 |  | inactive: 20.6%
O=C(Nc1ncc2c(n1)-c1ccccc1OC2)c1ccc(F)cc1 | inconclusive: 29.1 µM [inhibitor, partial curve, poor fit] | 
Cc1cccc(CC(=O)Nc2ccc(C(=O)N3CCCCC3)cc2)c1 |  | inactive: 0%
Cn1c(C(=O)Nc2ccc3c(c2)OCO3)cc2c(=O)n(C)c3ccccc3c21 | inconclusive: 1.03 µM [inhibitor, partial curve, poor fit] | 
CCN(c1ccccc1)S(=O)(=O)c1ccc(Cl)c(NC(=O)CNCc2ccccc2OC)c1 | active: 18.3 µM | 
C=CCn1c(SCc2cc(=O)n3ccsc3n2)nc2scc(C3CC3)c2c1=O | inconclusive: 29.1 µM [inhibitor, single point] | 
CCOc1ccc(/C=N/OC(C)C(=O)NCc2ccc3c(c2)OCO3)cc1 (centres undefined) |  | inactive: -25.1%
CCCNC(=O)c1ccc(N2CCC3(CC2)CC(c2cccc(Br)c2)=NO3)c(NC(=O)c2ccco2)c1 | inconclusive: 3.16 µM [inhibitor, single point] | 

Structure (SMILES) | Potency | activity change, negative = inhibition
CCOC(=O)c1ccc2c(c1)n(CC)c(C)[n+]2CC | inconclusive: 25.9 µM [inhibitor, single point] | 
c1cncc(-c2nc3ccccc3o2)c1 | inconclusive: 20.6 µM [activator, single point] | 
COc1ccc2c(c1OC)C(=O)N(c1ccc3c(c1)CCC3)C2=O | inconclusive: 20.6 µM [activator, partial curve] | 
COC(=O)C1=C(CN2CCc3ccccc32)NC(=O)NC1c1cc(C)ccc1C (centres undefined) | active: 13 µM | 
Cn1ncc(Br)c1C(=O)N1CCN(C(=O)c2ccco2)CC1 |  | inactive: -1.57%
COC(=O)c1cnn(-c2nc(-c3ccccc3)cs2)c1N | inconclusive: 14.6 µM [activator, partial curve] | 
NC(=O)c1c(NC(=O)c2c(F)cccc2F)sc2c1CCN(Cc1ccccc1)C2 | inconclusive: 6.51 µM [inhibitor, full curve, poor fit] | 
CC12CCC(=O)N1C(C(=O)N1CCN(S(=O)(=O)c3ccc(Br)cc3Cl)CC1)CS2 (centres undefined) | inconclusive: 23.1 µM [inhibitor, single point] | 
CN1CCC(=O)N([C@H](CO)c2ccccc2)CC1 | inconclusive: 20.6 µM [activator, single point] | 
c1ccc2c(c1)CSc1sccc1C2=C1CCNCC1 | inconclusive: 3.66 µM [inhibitor, partial curve, poor fit] | 
CCOC(=O)c1ccc(NC(=O)COc2ccccc2CNCCc2ccccc2)cc1 | active: 25.9 µM | 
O=C(CSCc1ccccc1Cl)NCCSc1ccccn1 | inconclusive: 11.6 µM [activator, partial curve] | 
CN(Cc1cn(C)nc1-c1ccccc1F)CC1CCN(Cc2ccccc2)CC1 |  | inactive: -5.15%
Cc1ccc(-c2noc(-c3ccccc3C(=O)N3CCN(C)CC3)n2)cc1 | inconclusive: 20.6 µM [activator, single point] | 
CCOC(=O)c1ccc(NC(=O)N2CCN(c3ccccc3OC)CC2)cc1 |  | inactive: -8.41%
CN(C(=O)c1ccno1)c1nnc(-c2cnccn2)s1 | inconclusive: 23.1 µM [activator, single point] | 
Cc1ccnc(N2CCN(C(=O)CSc3nc4ccccc4nc3N3CCCCC3)CC2)c1 | active: 12.6 µM | 
CCOC(=O)c1c(C)c(C(=O)N(C)C2CCCCC2)c(C)n1C |  | inactive: 22.5%
O=C(/C=C/c1ccccc1)NC(=O)c1ccccc1O | inconclusive: 20.6 µM [activator, partial curve] | 
O=c1c2ccccc2nc(COc2ccccc2)n1/N=C/c1cn[nH]c1-c1ccccc1 | active: 6.51 µM | 
NC(=O)[C@H]1CC2(CC(c3cccc(NC(=O)CC(c4ccccc4)c4ccccc4)c3)=NO2)CN1C(=O)c1ccccc1C(=O)c1ccccc1 (some centres undefined) |  | inactive: -18.8%
CN(C)CCCNC(=O)c1ccc(Cl)c(S(=O)(=O)N(C)c2ccccc2)c1 | inconclusive: 20.6 µM [inhibitor, single point] | 

A draw from above in order of molar mass, high to low:
Structure (SMILES) | Potency | activity change, negative = inhibition
NC(=O)[C@H]1CC2(CC(c3cccc(NC(=O)CC(c4ccccc4)c4ccccc4)c3)=NO2)CN1C(=O)c1ccccc1C(=O)c1ccccc1 (some centres undefined) |  | inactive: -18.8%
CC12CCC(=O)N1C(C(=O)N1CCN(S(=O)(=O)c3ccc(Br)cc3Cl)CC1)CS2 (centres undefined) | inconclusive: 23.1 µM [inhibitor, single point] | 
CCOC(=O)c1ccc(NC(=O)COc2ccccc2CNCCc2ccccc2)cc1 | active: 25.9 µM | 
O=c1c2ccccc2nc(COc2ccccc2)n1/N=C/c1cn[nH]c1-c1ccccc1 | active: 6.51 µM | 
CN(Cc1cn(C)nc1-c1ccccc1F)CC1CCN(Cc2ccccc2)CC1 |  | inactive: -5.15%
CCOC(=O)c1ccc(NC(=O)N2CCN(c3ccccc3OC)CC2)cc1 |  | inactive: -8.41%
O=C(CSCc1ccccc1Cl)NCCSc1ccccn1 | inconclusive: 11.6 µM [activator, partial curve] | 
COc1ccc2c(c1OC)C(=O)N(c1ccc3c(c1)CCC3)C2=O | inconclusive: 20.6 µM [activator, partial curve] | 
CCOC(=O)c1c(C)c(C(=O)N(C)C2CCCCC2)c(C)n1C |  | inactive: 22.5%
CCOC(=O)c1ccc2c(c1)n(CC)c(C)[n+]2CC | inconclusive: 25.9 µM [inhibitor, single point] | 
c1cncc(-c2nc3ccccc3o2)c1 | inconclusive: 20.6 µM [activator, single point] | 
